Source: PubChem BioAssay AID1259308 (NCATS, 2017)
Shown is one part, drawn at random, of about 59,000 deposited reagents. About 1,510 of all reagents (2.6%) count as active. 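Calls use total luciferase alone and ignore viability, so some active siRNAs may act by altering cell number.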 Not all columns of the deposit are shown.

Screen: 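Knock-downs that increase output of a recombinant reporter protein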 (primary screen)
System: human HEK293 embryonic kidney cells stably expressing firefly luciferase (HEK-CMV-Luc2-Hygro)
Reagent: single siRNA against human genes, 0.8 pmol siRNA per well
Timing: 72 h
Measured: 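Reporter luminescence and viable-cell signal on separate replicate plates, given as percent of non-targeting control and median/MAD z-scores, plus per-cell luciferase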
Reading the numbers: total luciferase, z-score and total luciferase, % of control: higher = more reporter protein produced
Hit rule: 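Active when the median/MAD z-score for overall luciferase is greater than 3; a gene was taken forward for validation with new siRNAs if at least two of its three siRNAs passed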
Calls: active = raised luciferase; inactive = no rise

For FBN1 [SID160764138] the deposit lists total luciferase, z-score 0.142; total luciferase, % of control 84.7; inactive. Silencing of FBN1 [SID160764147] resulted in: total luciferase, z-score 0.377; total luciferase, % of control 89.4; inactive. Depletion of FBN1 [SID160764158] gave: total luciferase, z-score -1.8; total luciferase, % of control 46; inactive. Against VPS53 [SID160743406] the deposit lists total luciferase, z-score -0.356; total luciferase, % of control 74.8; inactive. Depletion of VPS53 [SID160743408] gave: total luciferase, z-score 0.209; total luciferase, % of control 86; inactive. Knock-down of VPS53 [SID160743409] came out at: total luciferase, z-score 0.755; total luciferase, % of control 96.9; inactive.

RAB44 [SID160767219] gave total luciferase, z-score -1.47; total luciferase, % of control 52.6; inactive. With knock-down of RAB44 [SID160767220], the screen gave total luciferase, z-score -1.22; total luciferase, % of control 57.7; inactive. Depletion of RAB44 [SID160767221] resulted in: total luciferase, z-score 0.0073; total luciferase, % of control 82; inactive. With knock-down of MYBPC3 [SID160777622], the screen gave total luciferase, z-score -0.483; total luciferase, % of control 72.3; inactive. Against MYBPC3 [SID160777623] the deposit lists total luciferase, z-score 0.13; total luciferase, % of control 84.5; inactive. After knock-down of MYBPC3 [SID160777624] the results were total luciferase, z-score 0.0284; total luciferase, % of control 82.5; inactive.

Knock-down of TMEM259 [SID160753940] resulted in: total luciferase, z-score -0.576; total luciferase, % of control 70.4; inactive. Depletion of TMEM259 [SID160753941] resulted in: total luciferase, z-score -1.19; total luciferase, % of control 58.3; inactive. TMEM259 [SID160753942] showed total luciferase, z-score -0.707; total luciferase, % of control 67.8; inactive.

Limited to “total luciferase, z-score” (5 entries from above):
FBN1 [SID160764158]	-1.8
VPS53 [SID160743406]	-0.356
VPS53 [SID160743408]	0.209
VPS53 [SID160743409]	0.755
RAB44 [SID160767219]	-1.47

The list goes on.
S1PR4 [SID160724184] scored total luciferase, z-score -0.0317; total luciferase, % of control 81.3; inactive. For S1PR4 [SID160724186] the deposit lists total luciferase, z-score -1.23; total luciferase, % of control 57.5; inactive. Silencing of S1PR4 [SID160732088] resulted in: total luciferase, z-score 0.0573; total luciferase, % of control 83; inactive. With knock-down of NCAPH2 [SID160739168], the screen gave total luciferase, z-score -2.06; total luciferase, % of control 40.9; inactive. For NCAPH2 [SID160739169] the deposit lists total luciferase, z-score -0.24; total luciferase, % of control 77.1; inactive. After knock-down of NCAPH2 [SID160739170] the results were total luciferase, z-score -0.0887; total luciferase, % of control 80.1; inactive.

Against SIRAL2 [SID160742727], the entry reads total luciferase, z-score -0.739; total luciferase, % of control 67.2; inactive. Knock-down of SIRAL2 [SID160742728] came out at: total luciferase, z-score 0.808; total luciferase, % of control 97.9; inactive. For SIRAL2 [SID160742729], the values are total luciferase, z-score -0.377; total luciferase, % of control 74.4; inactive. Against MTERF3 [SID160739823], the entry reads total luciferase, z-score 0.343; total luciferase, % of control 88.7; inactive. MTERF3 [SID160739824] gave total luciferase, z-score 1.62; total luciferase, % of control 114; inactive. Knock-down of MTERF3 [SID160739825] resulted in: total luciferase, z-score -0.794; total luciferase, % of control 66.1; inactive.

PLN [SID160714483] showed total luciferase, z-score 0.54; total luciferase, % of control 92.6; inactive. PLN [SID160714485] gave total luciferase, z-score 1.56; total luciferase, % of control 113; inactive. PLN [SID160733527] showed total luciferase, z-score 2.34; total luciferase, % of control 128; inactive. Silencing of SLC9A5 [SID160716918] came out at: total luciferase, z-score -0.333; total luciferase, % of control 75.3; inactive. SLC9A5 [SID160716919] scored total luciferase, z-score 0.353; total luciferase, % of control 88.9; inactive. SLC9A5 [SID160716920] gave total luciferase, z-score -1.48; total luciferase, % of control 52.5; inactive.
